# Among all 2,100 compounds or so, about 590 (28%) were called active. The inconclusive results got no clear call from the source; some entries with a clear call stand among them for comparison. The call rests on the fitted dose curve; in most records, active means well fitted inhibition curve with a large enough effect; inconclusive means small, poorly fitted or top-dose-only effect; inactive means flat fitted curve, though single readings scatter. Potencies beside an inconclusive call are fits to weak or partial responses and may not hold up.
# Protein sequences, listed by entry. Tags and fused reporters are not part of them. Lines headed by an entry give the natural chain unless they say otherwise; changes in a name come on top.
# UniProt Q8IUX4: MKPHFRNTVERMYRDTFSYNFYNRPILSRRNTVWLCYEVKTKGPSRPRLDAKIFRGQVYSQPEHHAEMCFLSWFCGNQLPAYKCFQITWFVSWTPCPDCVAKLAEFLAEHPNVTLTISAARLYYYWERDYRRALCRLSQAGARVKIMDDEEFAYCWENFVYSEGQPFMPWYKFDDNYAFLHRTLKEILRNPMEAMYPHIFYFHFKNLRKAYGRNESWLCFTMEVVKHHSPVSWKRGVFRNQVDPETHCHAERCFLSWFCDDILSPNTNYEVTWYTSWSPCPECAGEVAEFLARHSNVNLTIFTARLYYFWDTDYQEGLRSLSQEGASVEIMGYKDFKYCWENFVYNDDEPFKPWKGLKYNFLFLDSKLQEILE
# Target: DNA dC->dU-editing enzyme APOBEC-3F (Homo sapiens) (UniProt Q8IUX4)
# Assay: qHTS for inhibitors of Vif-A3F interactions: Cherry picks; further: nearly all actives have a fitted effect of over 70% in size;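 on max response: % of control where 0% means no effect; active compounds raise eYFP fluorescence by blocking Vif-driven A3F loss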
# Settings: HeLa A3F-eYFP + Vif (tagged APOBEC3F with the HIV-1 protein that degrades it), eYFP fluorescence, 24 h
# Excerpt: The recent discovery and characterization of host restriction factors, which provide a potent defense to invading retroviruses, has provided new targets for antiviral drug development. APOBEC3G (A3G) and APOBEC3F (A3F) are potent cytidine deaminases that block HIV-1 replication; HIV-1 expresses the Vif protein, which counteracts A3G and A3F by binding to them and inducing their proteasomal degradation. The Vif-A3G and Vif-A3F interactions provide two potential targets for development of small molecules which can interfere with the ability of Vif to degrade A3G or A3F. […] To identify inhibitors that can interfere with Vif mediated degradation of A3G and A3F, we have developed Hela cell lines that stably express A3G or A3F tagged with eYFP at the C-terminal end (A3G-eYFP or A3F-eYFP, respectively) and Vif. In the absence of an inhibitor, Vif induces degradation of A3G-eYFP and A3F-eYFP, and the cells are not fluorescent. In the presence of an inhibitor, it is expected that Vif will be unable to degrade A3G-eYFP and/or A3F-eYFP, resulting in an increase in yellow fluorescence. In this assay, Vif A3F was screened against the cherry picks ordered from the MLSMR. NIH Chemical Genomics Center [NCGC] NIH Molecular Libraries Probe Centers Network [MLPCN] MLPCN Grant: MH093245 Assay Submitter (PI): Vinay Pathak, National Cancer Institute
# A3F-Vif cells were harvested from T225 flask and resuspended in phenol free OPTI-MEM medium with 5% FBS. Then 5 uL of 140,000 cells/mL resuspended cells was dispensed into each well of low base Aurora COC 1,536-well plates (black walled, clear bottom) using a Multidrop Combi dispenser. After overnight culture at 37 deg C with 5% CO2, a total of 23 nL of compounds at 5 selected concentrations from the NPC or positive control (2 mM stock of MG132) in DMSO was transferred to each well of the assay plate using a pintool (Kalypsys, San Diego, CA), and the plates were further incubated at 37 deg C with 5% CO2 for 24 hours. After that, the plates were measured on Acumen Explorer (TTP Lab Tech). The fluorescence was detected by 488 nm/Ex and […].
# Potency means the concentration at half of the fitted maximal effect.
SMILES,Potency,max response
O=c1[nH]c2ccccc2nc1/C=C(\O)c1cccs1,"inconclusive: 8.2 µM [inhibitor, partial curve]",–
COc1ccc(S(=O)(=O)N2N=C(C)Oc3ccccc3C2=O)cc1,"inconclusive: 1.77 µM [inhibitor, full curve]",–
CSc1ccc(C2NC(=O)c3ccccc3N2)cc1 (stereo not given),"inconclusive: 8.86 µM [inhibitor, partial curve]",–
Cc1ccc(NC(=O)Cn2ncc(Cl)c(Cl)c2=O)cc1S(=O)(=O)N1CCCCC1,"inconclusive: 14 µM [inhibitor, single point]",–
Cc1cccc(CS(=O)(=O)c2ncc(Cl)c(C(=O)Nc3c(C)cccc3C)n2)c1,"inconclusive: 12.5 µM [inhibitor, single point]",–
CCOc1ccc(CN2C(=O)c3ccccc3Sc3ccc(C(=O)O)cc32)cc1,"inconclusive: 5.8 µM [inhibitor, full curve]",–
COc1ccc(N/C=C\C(=O)c2ccc(Br)cc2)cc1OC,"inconclusive: 20.6 µM [inhibitor, single point]",–
CN(C)c1ccc(C2C=C(c3ccccc3)Nc3nnnn32)cc1 (stereo not given),"inconclusive: 23.1 µM [inhibitor, partial curve]",–
CCCOc1ccc(NC(=O)CC2C(=O)N(c3ccc(OCC)cc3)C(=S)N2C2CC2)cc1 (stereo not given),–,inactive: -28%
CCOC(=O)N1C/C(=C\c2ccccc2)C(=O)/C(=C/c2ccccc2)C1,"inconclusive: 15.8 µM [inhibitor, single point]",–
CCOC(=O)/C(C#N)=C\C=C1C=CN(C)C=C1,"inconclusive: 3.26 µM [inhibitor, single point]",–
Cc1ccc(-c2nc(C=Nc3ccc(O)cc3)c(O)o2)cc1,"inconclusive: 18.4 µM [inhibitor, single point]",–
Cc1c(-c2nnc(SCC(=O)Nc3ccccc3F)o2)nnn1-c1ccc(F)cc1,"inconclusive: 20.6 µM [inhibitor, partial curve]",–
CCOC(=O)c1cnc(-n2nc(C)cc2C)nc1NNc1nc(-c2ccccc2)cc(-c2ccccc2)n1,–,inactive: 6.49%
COc1cccc(C2CC(c3ccccc3)=NN2S(=O)(=O)c2ccc(C)cc2)c1OC (stereo not given),–,inactive: -28.4%
O=C1NC(c2ccccc2Br)=N/C1=C\c1ccco1,–,inactive: -25.1%
O=C1N/C(=C\c2ccccc2)c2ccccc21,"inconclusive: 1.98 µM [inhibitor, full curve]",–
CCOc1cc(/C=C(/C#N)C(=O)Nc2ccc(O)cc2)cc(Br)c1O,active: 15.8 µM,–
O=C(Nc1ncccn1)c1ccc([N+](=O)[O-])o1,–,inactive: -18.8%
Cc1cc([N+](=O)[O-])ccc1-c1ccc(/C=N/NC(=O)c2ccc(Br)o2)o1,active: 18.4 µM,–
CC1CCCCC1NC(=O)/C(C#N)=C/C=C/c1ccccc1[N+](=O)[O-] (stereo not given),"inconclusive: 5.59 µM [inhibitor, partial curve]",–
CCOc1ncccc1C(=O)OCc1ccc(C(=O)OC)cc1,–,inactive: -26.7%
CC(=O)Nc1ccc(-c2ccnc3c2CC(C)(C(=O)NCc2ccco2)O3)cc1 (stereo not given),"inconclusive: 1.98 µM [inhibitor, full curve, poor fit]",–

# Three records drawn at random from the list so far, as already listed:
SMILES,Potency,max response
CCOc1ncccc1C(=O)OCc1ccc(C(=O)OC)cc1,–,inactive: -26.7%
CCOC(=O)N1C/C(=C\c2ccccc2)C(=O)/C(=C/c2ccccc2)C1,"inconclusive: 15.8 µM [inhibitor, single point]",–
COc1ccc(S(=O)(=O)N2N=C(C)Oc3ccccc3C2=O)cc1,"inconclusive: 1.77 µM [inhibitor, full curve]",–

# The listing continues.

SMILES,Potency,max response
CN(C)c1ccc(/C=C/c2ccnc3ccccc23)cc1N,–,inactive: -19.7%
Cc1ccsc1/C=N\NC(=O)c1n[nH]c2c1CCC2,"inconclusive: 2.8 µM [inhibitor, full curve]",–
C=CCN1C(=O)c2ccc(C(=O)N(CC(C)C)c3c(N)n(CCCC)c(=O)[nH]c3=O)cc2C1=O,–,inactive: 4.71%
CCOc1ccc(NC(=O)N2CC=C(c3c[nH]c4ccccc34)CC2)cc1,"inconclusive: 2.06 µM [inhibitor, full curve]",–
CCn1nc(-c2ccccc2)c2nc3ccccc3nc21,"inconclusive: 16.4 µM [inhibitor, single point]",–
COc1cc(C(=O)N/N=C/c2ccccn2)cc(OC)c1OC,"inconclusive: 11.2 µM [inhibitor, partial curve, poor fit]",–
O=C(Nc1cc(Cl)cc2c1-c1ccc(Cl)cc1C2O)C(Cl)Cl (stereo not given),–,inactive: -15.3%
CCOc1ccc(Cn2c3ccc(OC)cc3c3nc4ccccc4nc32)cc1,active: 8.2 µM,–
CCOc1ccccc1Oc1nc(C)nc2c1oc1ccccc12,"inconclusive: 2.31 µM [inhibitor, partial curve]",–
COc1ccc(/C=N/NC(=O)c2[nH]nc3c2CCc2ccccc2-3)cc1OC,"inconclusive: 2.23 µM [inhibitor, full curve]",–
O=C1Nc2ccc(Br)cc2C12NNc1ccccc1O2 (stereo not given),active: 14 µM,–
c1ccc2c(c1)nc(NCC1CCCO1)c1nnnn12 (stereo not given),–,inactive: -11.8%
CN(C)c1ccc(Nc2nc3ccccc3n3nnnc23)cc1,–,inactive: -2.05%
O=C1NC(=Nc2ccc(O)cc2)S/C1=C/c1ccco1,"inconclusive: 7.9 µM [inhibitor, partial curve]",–
O=C(CSc1ccccc1)Nc1nc2ccccc2[nH]1,"inconclusive: 8.86 µM [inhibitor, partial curve]",–
CC1(C(=O)NCc2ccc(F)c(F)c2)Cc2c(-c3cccc(C(N)=O)c3)ccnc2O1 (stereo not given),"inconclusive: 14 µM [inhibitor, partial curve]",–
CSc1nsc(/C=C/Nc2ccc(C)cc2)c1C#N,active: 15.8 µM,–
COc1ccc(NC2=CC(=O)CC(c3ccccc3)C2)c(OC)c1 (stereo not given),"inconclusive: 14 µM [inhibitor, partial curve]",–
c1ccc2c(c1)Cc1cc3ccccc3nc1-2,"inconclusive: 2.91 µM [inhibitor, full curve, poor fit]",–
O=C(CSc1nc2ccc(Nc3nc(N4CCOCC4)nc(N4CCOCC4)n3)cc2s1)Nc1ccccc1F,"inconclusive: 4.61 µM [inhibitor, full curve]",–
CCCCCCN1C[C@H](O)[C@@H](n2cc(COC(=O)c3ccccc3)nn2)C[C@@H]1c1ccc(C)cc1,–,inactive: -0.173%
COc1cc2c(c(OC)c1OC)-c1ccc(N(C)CC(OC)OC)c(=O)cc1[C@@H](NC(C)=O)CC2,"inconclusive: 0.559 µM [inhibitor, full curve]",–
